Source: the supplement of paper PMC12819154, “High-throughput peptide-centric local stability assay extends protein–ligand identification to membrane proteins, tissues and bacteria” (Nature Structural & Molecular Biology, 2025)
The other results are listed elsewhere or left out. Small differences around the control level are noise.

Sequences of proteins named here, by UniProt entry; tags and fusion partners are left off. A change or cut given only in a name is not applied to a line headed by its entry.
UniProt Q460N5, whole entry: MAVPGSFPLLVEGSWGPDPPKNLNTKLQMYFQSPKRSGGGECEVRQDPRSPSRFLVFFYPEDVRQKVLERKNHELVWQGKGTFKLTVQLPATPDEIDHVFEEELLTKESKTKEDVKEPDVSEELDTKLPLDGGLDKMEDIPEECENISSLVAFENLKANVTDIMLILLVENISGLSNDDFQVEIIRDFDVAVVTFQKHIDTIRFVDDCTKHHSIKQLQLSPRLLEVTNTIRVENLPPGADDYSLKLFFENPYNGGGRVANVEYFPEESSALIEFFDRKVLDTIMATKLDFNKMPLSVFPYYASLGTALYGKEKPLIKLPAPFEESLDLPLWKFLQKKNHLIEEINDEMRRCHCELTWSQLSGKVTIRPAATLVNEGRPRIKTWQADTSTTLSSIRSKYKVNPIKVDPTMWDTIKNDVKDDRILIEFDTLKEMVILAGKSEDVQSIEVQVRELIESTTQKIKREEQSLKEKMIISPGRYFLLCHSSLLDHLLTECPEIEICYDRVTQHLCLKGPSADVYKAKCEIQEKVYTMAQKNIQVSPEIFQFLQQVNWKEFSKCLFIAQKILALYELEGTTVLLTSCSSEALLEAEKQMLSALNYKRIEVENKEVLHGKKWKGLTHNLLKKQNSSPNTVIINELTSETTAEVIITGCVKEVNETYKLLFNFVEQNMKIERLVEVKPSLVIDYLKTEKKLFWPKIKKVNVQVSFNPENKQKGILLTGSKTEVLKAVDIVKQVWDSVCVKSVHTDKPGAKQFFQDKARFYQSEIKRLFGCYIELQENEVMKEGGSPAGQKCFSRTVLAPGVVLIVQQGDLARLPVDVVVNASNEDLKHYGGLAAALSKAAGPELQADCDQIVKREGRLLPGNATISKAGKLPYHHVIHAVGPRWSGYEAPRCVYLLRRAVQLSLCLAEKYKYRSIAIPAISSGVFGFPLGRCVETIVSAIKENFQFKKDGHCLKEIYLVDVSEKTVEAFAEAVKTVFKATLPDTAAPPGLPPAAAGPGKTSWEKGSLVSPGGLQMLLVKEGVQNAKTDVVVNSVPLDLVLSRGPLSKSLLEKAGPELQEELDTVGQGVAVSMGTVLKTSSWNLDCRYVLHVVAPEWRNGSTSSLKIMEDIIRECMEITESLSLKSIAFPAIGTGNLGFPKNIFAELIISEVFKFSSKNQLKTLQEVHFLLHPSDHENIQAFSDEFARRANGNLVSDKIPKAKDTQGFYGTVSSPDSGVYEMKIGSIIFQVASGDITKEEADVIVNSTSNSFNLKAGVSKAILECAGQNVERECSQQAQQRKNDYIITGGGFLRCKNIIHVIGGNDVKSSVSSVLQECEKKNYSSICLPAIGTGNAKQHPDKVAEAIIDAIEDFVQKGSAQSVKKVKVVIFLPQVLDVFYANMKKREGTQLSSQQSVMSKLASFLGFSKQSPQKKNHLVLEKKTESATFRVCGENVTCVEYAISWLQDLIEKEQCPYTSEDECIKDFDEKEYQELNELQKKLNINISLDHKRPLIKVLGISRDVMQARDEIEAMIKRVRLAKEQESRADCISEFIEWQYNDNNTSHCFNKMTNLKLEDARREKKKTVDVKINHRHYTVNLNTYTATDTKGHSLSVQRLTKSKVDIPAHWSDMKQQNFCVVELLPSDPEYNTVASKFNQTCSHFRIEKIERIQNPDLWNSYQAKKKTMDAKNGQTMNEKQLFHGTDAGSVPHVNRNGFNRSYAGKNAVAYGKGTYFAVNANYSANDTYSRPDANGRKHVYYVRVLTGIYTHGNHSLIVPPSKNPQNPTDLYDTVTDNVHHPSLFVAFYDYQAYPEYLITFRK
UniProt Q5H9R7: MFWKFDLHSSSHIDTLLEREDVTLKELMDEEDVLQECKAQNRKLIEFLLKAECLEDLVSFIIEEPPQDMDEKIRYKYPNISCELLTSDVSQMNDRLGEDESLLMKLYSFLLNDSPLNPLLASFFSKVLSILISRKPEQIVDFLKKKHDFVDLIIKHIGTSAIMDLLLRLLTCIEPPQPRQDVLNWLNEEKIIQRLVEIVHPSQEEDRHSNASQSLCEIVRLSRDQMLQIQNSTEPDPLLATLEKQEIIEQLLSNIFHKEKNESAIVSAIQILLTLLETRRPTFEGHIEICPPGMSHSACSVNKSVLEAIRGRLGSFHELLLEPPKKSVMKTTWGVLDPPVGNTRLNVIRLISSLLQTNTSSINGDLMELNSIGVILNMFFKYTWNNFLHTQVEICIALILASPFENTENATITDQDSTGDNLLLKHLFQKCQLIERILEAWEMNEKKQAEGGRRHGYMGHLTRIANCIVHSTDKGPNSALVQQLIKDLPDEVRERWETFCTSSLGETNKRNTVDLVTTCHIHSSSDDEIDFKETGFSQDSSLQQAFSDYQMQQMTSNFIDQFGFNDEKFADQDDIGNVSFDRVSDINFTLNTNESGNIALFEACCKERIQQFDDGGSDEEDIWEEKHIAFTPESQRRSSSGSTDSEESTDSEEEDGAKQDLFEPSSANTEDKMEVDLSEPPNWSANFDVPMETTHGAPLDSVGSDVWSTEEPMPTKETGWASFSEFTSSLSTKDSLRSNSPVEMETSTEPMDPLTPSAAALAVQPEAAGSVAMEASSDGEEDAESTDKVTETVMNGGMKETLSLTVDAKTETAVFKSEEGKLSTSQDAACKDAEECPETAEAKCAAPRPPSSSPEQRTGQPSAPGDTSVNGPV
UniProt Q5T9S5: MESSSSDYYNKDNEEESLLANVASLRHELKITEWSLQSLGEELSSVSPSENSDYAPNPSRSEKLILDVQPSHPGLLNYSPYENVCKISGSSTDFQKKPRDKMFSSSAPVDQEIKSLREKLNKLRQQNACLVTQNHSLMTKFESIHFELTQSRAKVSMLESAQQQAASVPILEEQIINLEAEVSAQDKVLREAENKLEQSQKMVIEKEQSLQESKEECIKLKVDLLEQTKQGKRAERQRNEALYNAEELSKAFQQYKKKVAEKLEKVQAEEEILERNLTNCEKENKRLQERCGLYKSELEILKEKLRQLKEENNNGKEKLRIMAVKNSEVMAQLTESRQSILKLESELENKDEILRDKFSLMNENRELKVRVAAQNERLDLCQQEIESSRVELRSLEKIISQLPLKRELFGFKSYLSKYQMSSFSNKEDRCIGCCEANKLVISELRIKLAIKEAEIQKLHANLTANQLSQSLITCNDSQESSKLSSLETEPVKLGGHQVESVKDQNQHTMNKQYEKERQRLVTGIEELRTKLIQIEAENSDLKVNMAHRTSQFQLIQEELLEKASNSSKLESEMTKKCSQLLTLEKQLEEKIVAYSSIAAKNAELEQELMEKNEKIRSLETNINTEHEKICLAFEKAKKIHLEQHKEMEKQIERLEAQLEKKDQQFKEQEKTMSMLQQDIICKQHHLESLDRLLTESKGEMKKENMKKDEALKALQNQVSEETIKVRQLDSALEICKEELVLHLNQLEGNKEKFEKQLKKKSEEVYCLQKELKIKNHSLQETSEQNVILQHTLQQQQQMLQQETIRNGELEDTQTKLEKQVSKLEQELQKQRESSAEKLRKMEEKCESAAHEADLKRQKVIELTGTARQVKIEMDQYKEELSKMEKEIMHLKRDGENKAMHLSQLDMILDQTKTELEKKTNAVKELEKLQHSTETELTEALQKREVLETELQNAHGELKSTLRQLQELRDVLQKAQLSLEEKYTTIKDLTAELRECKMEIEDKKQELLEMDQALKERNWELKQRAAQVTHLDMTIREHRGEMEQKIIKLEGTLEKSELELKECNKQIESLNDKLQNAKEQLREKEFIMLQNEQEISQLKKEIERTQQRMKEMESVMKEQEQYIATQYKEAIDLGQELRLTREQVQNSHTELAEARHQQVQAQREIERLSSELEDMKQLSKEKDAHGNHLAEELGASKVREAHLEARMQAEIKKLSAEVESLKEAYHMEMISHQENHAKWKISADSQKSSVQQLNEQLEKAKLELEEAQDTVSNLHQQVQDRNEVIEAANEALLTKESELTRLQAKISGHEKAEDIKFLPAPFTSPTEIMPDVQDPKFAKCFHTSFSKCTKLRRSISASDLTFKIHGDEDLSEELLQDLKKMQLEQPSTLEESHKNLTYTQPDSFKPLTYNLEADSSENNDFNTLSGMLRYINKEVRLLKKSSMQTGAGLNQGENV
UniProt Q504T8: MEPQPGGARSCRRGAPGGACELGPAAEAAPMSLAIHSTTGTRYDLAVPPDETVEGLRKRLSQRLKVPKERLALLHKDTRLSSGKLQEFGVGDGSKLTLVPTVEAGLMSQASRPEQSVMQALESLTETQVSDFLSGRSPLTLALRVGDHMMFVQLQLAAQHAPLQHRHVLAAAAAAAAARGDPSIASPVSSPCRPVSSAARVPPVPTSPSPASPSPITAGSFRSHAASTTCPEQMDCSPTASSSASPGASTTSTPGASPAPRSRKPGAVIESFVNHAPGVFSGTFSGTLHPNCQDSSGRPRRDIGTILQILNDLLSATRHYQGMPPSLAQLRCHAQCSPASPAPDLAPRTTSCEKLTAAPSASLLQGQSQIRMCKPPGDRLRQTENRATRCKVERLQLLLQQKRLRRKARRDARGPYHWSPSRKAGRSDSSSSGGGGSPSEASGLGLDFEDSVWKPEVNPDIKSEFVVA
UniProt Q53HL2: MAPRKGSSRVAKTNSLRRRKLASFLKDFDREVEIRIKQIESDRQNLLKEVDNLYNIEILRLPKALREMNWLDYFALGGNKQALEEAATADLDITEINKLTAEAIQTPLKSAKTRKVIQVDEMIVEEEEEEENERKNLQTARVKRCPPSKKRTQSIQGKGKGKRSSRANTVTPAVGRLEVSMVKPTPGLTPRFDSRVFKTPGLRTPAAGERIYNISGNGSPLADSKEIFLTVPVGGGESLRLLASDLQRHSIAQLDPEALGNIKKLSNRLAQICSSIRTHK
UniProt Q5TAX3: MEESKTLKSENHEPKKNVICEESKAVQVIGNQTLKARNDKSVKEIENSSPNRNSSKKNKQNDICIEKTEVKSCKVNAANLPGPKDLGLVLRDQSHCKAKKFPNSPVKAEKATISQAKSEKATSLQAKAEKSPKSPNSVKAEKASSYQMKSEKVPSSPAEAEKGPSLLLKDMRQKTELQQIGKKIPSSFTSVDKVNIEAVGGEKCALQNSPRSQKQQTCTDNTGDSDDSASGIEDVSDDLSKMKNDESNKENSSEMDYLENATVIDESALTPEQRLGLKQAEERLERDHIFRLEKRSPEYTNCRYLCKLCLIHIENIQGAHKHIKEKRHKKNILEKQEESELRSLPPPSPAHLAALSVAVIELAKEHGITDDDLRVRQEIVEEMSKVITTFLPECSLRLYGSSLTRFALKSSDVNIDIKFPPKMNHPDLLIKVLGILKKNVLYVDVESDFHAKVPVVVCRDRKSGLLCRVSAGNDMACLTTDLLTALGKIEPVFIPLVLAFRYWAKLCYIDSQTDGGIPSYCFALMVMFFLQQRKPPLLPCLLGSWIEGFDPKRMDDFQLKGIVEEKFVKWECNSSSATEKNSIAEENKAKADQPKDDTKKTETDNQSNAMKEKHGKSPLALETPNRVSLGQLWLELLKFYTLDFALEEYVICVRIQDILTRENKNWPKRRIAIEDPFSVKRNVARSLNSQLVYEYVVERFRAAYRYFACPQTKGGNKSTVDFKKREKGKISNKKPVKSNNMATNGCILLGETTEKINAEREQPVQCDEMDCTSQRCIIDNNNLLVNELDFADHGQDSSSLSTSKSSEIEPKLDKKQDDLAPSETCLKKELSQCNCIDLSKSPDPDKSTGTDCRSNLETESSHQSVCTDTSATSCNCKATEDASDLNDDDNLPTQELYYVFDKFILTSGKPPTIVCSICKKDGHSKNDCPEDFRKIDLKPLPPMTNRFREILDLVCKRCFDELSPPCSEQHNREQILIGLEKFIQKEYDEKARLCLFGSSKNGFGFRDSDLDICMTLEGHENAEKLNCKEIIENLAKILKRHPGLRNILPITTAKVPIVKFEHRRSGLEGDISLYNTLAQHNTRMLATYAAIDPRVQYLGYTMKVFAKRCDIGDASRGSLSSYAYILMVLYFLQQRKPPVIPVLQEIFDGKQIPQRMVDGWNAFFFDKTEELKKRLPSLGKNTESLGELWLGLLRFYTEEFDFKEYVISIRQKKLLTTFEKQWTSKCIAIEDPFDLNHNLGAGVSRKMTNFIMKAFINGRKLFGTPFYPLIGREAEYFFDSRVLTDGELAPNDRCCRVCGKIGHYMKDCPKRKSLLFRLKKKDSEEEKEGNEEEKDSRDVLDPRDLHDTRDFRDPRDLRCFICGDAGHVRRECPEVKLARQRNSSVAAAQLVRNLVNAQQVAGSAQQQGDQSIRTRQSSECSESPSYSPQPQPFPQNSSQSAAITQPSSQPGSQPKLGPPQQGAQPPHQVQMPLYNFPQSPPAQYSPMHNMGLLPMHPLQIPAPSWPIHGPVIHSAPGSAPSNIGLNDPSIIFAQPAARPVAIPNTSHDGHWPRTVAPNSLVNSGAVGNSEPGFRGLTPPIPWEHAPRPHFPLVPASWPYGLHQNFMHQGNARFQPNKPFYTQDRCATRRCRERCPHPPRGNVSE

Each target was assayed with Cc1nc(Nc2ncc(C(=O)Nc3c(C)cccc3Cl)s2)cc(N2CCN(CCO)CC2)n1 [dasatinib] (assay: log2 fold change of tryptic peptide abundance, ligand vs vehicle (limited proteolysis) (log2 ratio); higher = more trypsin-susceptible (destabilized)). Settings: ligand concentration: 5 uM; sample: K562 cleared lysate.

Row | Target | log2 fold change
1 | UniProt Q5TA45 (peptide sequence: LLHGTLIMK, peptide start residue: 478) | -0.749
2 | ATF7IP2 (peptide sequence: NKHEGIADK, peptide start residue: 355) (UniProt Q5U623) | 0.0867
3 | DOCK11 (peptide sequence: RQCNVDIK, peptide start residue: 795) (UniProt Q5JSL3) | 0.373
4 | UniProt Q58WW2 (peptide sequence: GDWSDTGPR, peptide start residue: 314) | 0.153
5 | AASDH (peptide sequence: KLSDINQEEASGTSLHQK, peptide start residue: 647) (UniProt Q4L235) | 0.118
6 | PITRM1 (peptide sequence: FLHTEIR, peptide start residue: 894) (UniProt Q5JRX3) | -0.313
7 | UniProt Q5JUX0 (peptide sequence: ISDTHLAEIMVGK, peptide start residue: 119) | 0.355
8 | TBC1D10B (peptide sequence: ADGPPGPHDGGDRPSAEAR, peptide start residue: 785) (UniProt Q4KMP7) | 0.294
9 | UniProt Q49A88 (peptide sequence: DTSDLEQNWSLQDHYR, peptide start residue: 185) | -0.376
10 | ATXN7L2 (peptide sequence: APPPPPAPASSQK, peptide start residue: 113) (UniProt Q5T6C5) | 0.348
11 | UniProt Q5JSJ4 (peptide sequence: VKRPGEPNSPMSSK, peptide start residue: 609) | 0.481
12 | UniProt Q5FBB7 (peptide sequence: LIQPGTFTK, peptide start residue: 259) | 0.379
13 | SH3PXD2A (peptide sequence: WTLGGMVNR, peptide start residue: 255) (UniProt Q5TCZ1) | 0.515
14 | UniProt Q4ADV7 (peptide sequence: TPEQTSPR, peptide start residue: 1366) | -0.251
15 | UniProt Q49AM3 (peptide sequence: SHPNQPLSQTQSR, peptide start residue: 479) | 0.306
16 | PARP14 (peptide sequence: GLTHNLLK, peptide start residue: 616) (UniProt Q460N5) | -0.232
17 | UniProt Q5H9R7 (peptide sequence: FDLHSSSHIDTLLEREDVTLK, peptide start residue: 5) | 0.776
18 | UniProt Q5JVG2 (peptide sequence: IHTGEKPYECSDCGK, peptide start residue: 243) | 0.818
19 | TPRN (peptide sequence: GSNTFTVVPK, peptide start residue: 497) (UniProt Q4KMQ1) | -0.326

Row | Target | log2 fold change
20 | GLYR1 (peptide sequence: VEQLKPYHAHKEEMIK, peptide start residue: 57) (UniProt Q49A26) | -0.159
21 | UniProt Q5J8M3 (peptide sequence: WAIELSGPGGGSR, peptide start residue: 17) | 0.119
22 | FAM102B (peptide sequence: IAEPNLDTADKEDTASEKLSR, peptide start residue: 261) (UniProt Q5T8I3) | 1.16
23 | SP6 (peptide sequence: AGGAVEPPGGK, peptide start residue: 353) (UniProt Q3SY56) | -0.508
24 | PCID2 (peptide sequence: AIDSSNLKDDYSTAQR, peptide start residue: 194) (UniProt Q5JVF3) | 0.163
25 | RBM26 (peptide sequence: CRDYDEK, peptide start residue: 294) (UniProt Q5T8P6) | 0.592
26 | UniProt Q460N3 (peptide sequence: RRETEEK, peptide start residue: 1155) | -0.0648
27 | CCDC18 (peptide sequence: LESELENKDEILR, peptide start residue: 343) (UniProt Q5T9S5) | 0.209
28 | TIMM50 (peptide sequence: LEQEEQQR, peptide start residue: 318) (UniProt Q3ZCQ8) | 0.076
29 | UniProt Q5T2N8 (peptide sequence: LAQFDYGR, peptide start residue: 554) | -0.425
30 | ACTBL2 (peptide sequence: IWYHTFYNELR, peptide start residue: 86) (UniProt Q562R1) | -0.0609
31 | UniProt Q504T8 (peptide sequence: CHAQCSPASPAPDLAPR, peptide start residue: 332) | -0.467
32 | CDCA8 (peptide sequence: LLASDLQR, peptide start residue: 241) (UniProt Q53HL2) | -0.422
33 | UniProt Q5HYC2 (peptide sequence: DILLEQSLQSHKK, peptide start residue: 662) | -0.585
34 | GKAP1 (peptide sequence: EQQQSEANELR, peptide start residue: 64) (UniProt Q5VSY0) | -0.308
35 | UniProt Q5TAX3 (peptide sequence: IDLKPLPPMTNR, peptide start residue: 935) | -0.358
36 | VPS53 (peptide sequence: RPGGPSNVLR, peptide start residue: 230) (UniProt Q5VIR6) | -0.367
37 | UniProt Q4G0N8 (peptide sequence: KGKCMSLDTIK, peptide start residue: 555) | -0.186

Fetched one by one from the list above, 2 records:
Row | Target | log2 fold change
22 | FAM102B (peptide sequence: IAEPNLDTADKEDTASEKLSR, peptide start residue: 261) (UniProt Q5T8I3) | 1.16
33 | UniProt Q5HYC2 (peptide sequence: DILLEQSLQSHKK, peptide start residue: 662) | -0.585
